Laboratory results from PMC6051995.
These are yes or no findings as the source states them, for the method shown. In cells and extracts the contact can be indirect. These calls come from enrichment with a bait or labelling near it, and not all partners need be listed.

Protein sequences, listed by entry. Tags and fused reporters are not part of them.
UniProt Q15910: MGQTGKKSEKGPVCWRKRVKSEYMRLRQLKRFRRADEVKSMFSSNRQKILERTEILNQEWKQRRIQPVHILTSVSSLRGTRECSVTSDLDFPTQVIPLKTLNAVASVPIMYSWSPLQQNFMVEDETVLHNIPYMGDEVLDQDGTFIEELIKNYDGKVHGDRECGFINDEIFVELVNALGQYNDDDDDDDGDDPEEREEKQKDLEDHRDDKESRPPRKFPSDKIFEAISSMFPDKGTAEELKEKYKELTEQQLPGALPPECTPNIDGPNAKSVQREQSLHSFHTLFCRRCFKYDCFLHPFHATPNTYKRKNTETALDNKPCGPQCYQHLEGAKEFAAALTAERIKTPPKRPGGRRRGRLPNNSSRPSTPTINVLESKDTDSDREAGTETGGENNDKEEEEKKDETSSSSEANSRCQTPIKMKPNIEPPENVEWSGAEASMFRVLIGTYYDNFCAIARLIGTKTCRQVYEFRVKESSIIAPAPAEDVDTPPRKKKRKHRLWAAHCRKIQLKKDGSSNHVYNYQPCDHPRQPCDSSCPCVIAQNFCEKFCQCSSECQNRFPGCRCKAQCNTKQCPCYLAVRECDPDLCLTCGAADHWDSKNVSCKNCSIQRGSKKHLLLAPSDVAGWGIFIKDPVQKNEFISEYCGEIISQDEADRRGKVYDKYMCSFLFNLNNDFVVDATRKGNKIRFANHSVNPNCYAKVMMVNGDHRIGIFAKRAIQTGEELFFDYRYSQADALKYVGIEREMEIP
UniProt Q9UJU6: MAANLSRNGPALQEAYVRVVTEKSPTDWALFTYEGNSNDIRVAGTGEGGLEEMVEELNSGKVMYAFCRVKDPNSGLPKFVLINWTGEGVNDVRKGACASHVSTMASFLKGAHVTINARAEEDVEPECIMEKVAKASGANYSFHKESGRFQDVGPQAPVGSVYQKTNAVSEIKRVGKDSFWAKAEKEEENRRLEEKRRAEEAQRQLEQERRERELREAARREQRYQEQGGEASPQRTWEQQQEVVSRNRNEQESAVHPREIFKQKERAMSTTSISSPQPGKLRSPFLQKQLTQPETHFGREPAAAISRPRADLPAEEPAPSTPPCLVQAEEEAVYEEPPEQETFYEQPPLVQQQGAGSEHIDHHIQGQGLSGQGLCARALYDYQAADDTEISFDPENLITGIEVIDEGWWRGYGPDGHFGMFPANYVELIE
UniProt Q12929: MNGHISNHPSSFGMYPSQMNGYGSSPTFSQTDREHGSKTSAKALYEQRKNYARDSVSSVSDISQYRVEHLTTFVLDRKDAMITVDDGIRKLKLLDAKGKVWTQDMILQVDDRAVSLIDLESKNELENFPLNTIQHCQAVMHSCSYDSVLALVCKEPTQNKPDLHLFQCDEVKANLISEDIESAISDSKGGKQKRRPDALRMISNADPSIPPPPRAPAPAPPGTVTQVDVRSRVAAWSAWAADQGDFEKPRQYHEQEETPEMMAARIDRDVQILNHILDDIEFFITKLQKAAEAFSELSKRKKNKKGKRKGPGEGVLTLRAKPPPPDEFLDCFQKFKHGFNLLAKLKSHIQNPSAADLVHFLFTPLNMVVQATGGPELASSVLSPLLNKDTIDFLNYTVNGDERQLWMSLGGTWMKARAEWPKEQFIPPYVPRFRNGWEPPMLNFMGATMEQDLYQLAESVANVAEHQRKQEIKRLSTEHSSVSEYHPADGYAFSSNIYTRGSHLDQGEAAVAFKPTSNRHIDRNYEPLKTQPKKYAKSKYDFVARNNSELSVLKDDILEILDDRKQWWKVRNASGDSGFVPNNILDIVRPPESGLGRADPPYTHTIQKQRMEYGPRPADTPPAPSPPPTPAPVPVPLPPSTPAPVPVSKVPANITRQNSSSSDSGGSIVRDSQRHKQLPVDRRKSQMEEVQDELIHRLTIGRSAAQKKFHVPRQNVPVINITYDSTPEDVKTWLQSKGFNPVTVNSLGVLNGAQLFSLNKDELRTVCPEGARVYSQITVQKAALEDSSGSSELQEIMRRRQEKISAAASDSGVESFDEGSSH

Target: FLAG-EZH2 (wild-type) (UniProt Q15910)
Test: affinity purification with mass spectrometry; whole cell lysates of MDA-MB-231 knockdown-rescue cells expressing FLAG vector, FLAG-EZH2 or FLAG-T367A; anti-FLAG antibody beads; on-bead digestion, LC-MS/MS; SAINT and FC scoring; three biological replicates

| binding | Substance |
| --- | --- |
| binds | DBNL (from UniProt Q9UJU6 1-430) |
| binds | vinculin (endogenous) (from UniProt P18206-2) |
| binds | SYNE2 (nesprin-2) (from UniProt Q8WXH0 1-6885) |
| binds | EPS8 (Epidermal Growth Factor Receptor Pathway Substrate 8) (from UniProt Q12929 1-822) |
